Data reported in paper doi:10.1101/268466.

Molecular target: YC-TON1 (TONNEAU1 fused to the C-terminal half of YFP)
Assay: split reporter

B1: YN-TRM1 (TON1 RECRUITMENT MOTIF1 fused to the N-terminal half of YFP) (protein, UniProt Q9S823 1-905)
chain: MSAKLLYNLSDENPNLNKQFGCMNGIFQVFYRQHCPATPVTVSGGAEKSLPPGERRGSVGETNMESDKETERSSTKKKKSAAKEKHRVSFESSSRPSFSSSPRSSSFSSAEVSTTASQFDQPGENLIREQPNGGLMMPYDLKELVKGSINREIRTRGEEASFTQQQQPISARSSMLLLKESSLRSPCRSSNEWNEGRGAAMKFKESHRLSYDEREMRNNGFRVGSKLKETPRLSLDSRSNSFRSPRADAARSSCPEEPATMTHRRSSSSVVAKLMGLEVIADNSDTEQRRENRFCDSPRPMSRVEPTALQRSRSVDSIKRIPASAASKFPMEPAPWKQMKAGDSALTVYGEIQKRLTQLEFKKSGKDLRALKQILEAMEKTQQLIDESRDDGTLSTTTLMQRTHKPVSAATSPARNFKSSSIVVMKSAAPVSTSPLPQNVTLPNVKVGNSRQTRKVTSGKQNAMDLTPRPGLYKGQLDSTKSNSPKTVRSRQALAADAGSMTKSGRSQQHSVSPRTQPKKLGFEKQTRPTTPKSEPGKRQLGRQQTEVASPRRKQMIKPHSTLQQPDDRLSDARSDLRSLRSDSNISLGSNVDIEVTSRHRLERNCDFPEQHTPKQRSPDFGIKQDRPSLKPLKVTVEQPSPVSVLDAVFDEEDSPSPVRKISLSFKEEDALRSEESEWINKPTSFCRSVPFPQSNRGPMKPSSDHFECSPEEGADFKSGNHKYILEILLASGILRDLEYSMISFQLHQTRLPINPGLFFILEQNKASNVTLPDNKHRGRGFRQQQTNPTETIRRKLVFDTVNEILARKFTAEGCIKPRLIANPLKKLEKISKEEQLLQTLCSEIDRLQQNNSNCILEDDEEDIIWEDLQSQSMNLKEFEGETPGIVLDIERMIFRDLVNEVCFC
binding: binds

No constants are given. Whether binding was seen depends on the method and setting. Binding seen in cells or lysates may run through a third protein. A result given as binding can be weak or reduced; the word gives no strength. Where a sequence is shown, tags or fusion partners need not be part of it.
